Literature values, collected in PMC2774688, “Cellular Ser/Thr-Kinase Assays Using Generic Peptide Substrates” (Current Chemical Genomics, 2008).

Tested on: PI3K
Conditions: read-out: IC50 in vitro potency on PI3K, no reference given; cited from earlier work

## CN[C@@H]1C[C@H]2O[C@@](C)([C@@H]1OC)n1c3ccccc3c3c4c(c5c6ccccc6n2c5c31)C(=O)NC4 [Staurosporine]
  IC50: ~9 µM
